Assay results taken from patent US7569724B2, “Carbamic acid compounds comprising an amide linkage as HDAC inhibitors” (Topotarget UK Limited, priority 2000, dated 2009).
For at least one compound, name, drawing or mass did not settle the structure.

Tested on: HDAC (HeLa cell extract)
Assay: Primary assay: deacetylase activity, HeLa cell extract as source of HDAC
Assay type: biochemical, human
Conditions: @ 1 μM
From the text: Briefly, this assay relies on the release of radioactive acetate from a radioactively labelled histone fragment by the action of HDAC enzyme. Test compounds, which inhibit HDAC, reduce the yield of radioactive acetate. Signal (e.g., scintillation counts) measured in the presence and absence of a test compound provide an indication of that compound's ability to inhibit HDAC activity. Decreased activity indicates increased inhibition by the test compound. […]
After purification of the radiolabelled histone fragment, it was incubated with a source of HDAC (e.g., an extract of HeLa cells (a rich source of HDAC), recombinantly produced HDAC1 or HDAC2) and any released acetate was extracted into an organic phase and quantitatively determined using scintillation counting. By including a test compound with the source of HDAC, that compound's ability to inhibit the HDAC was determined. […]
A source of HDAC (e.g., 2 μL of crude HeLa extract, 5 μL of HDAC1 or HDAC2; in elution buffer, as above) was incubated with 3 μL of radioactively labelled peptide along with appropriate dilutions of candidate compounds (1.5 μL) in a total volume of 150 μL of buffer (20 mM Tris pH 7.4, 10% glycerol). […] Radioactivity was measured using a Tri-Carb 2100TR Liquid Scintillation Analyzer (Packard). […]

`CN(C)c1ccc(C(=O)NCCCC(=O)NO)cc1` [PX082531, Dimethylamino-N-(3-hydroxycarbamoyl-propyl)-benzamide] was tested. Which “HDAC Inhibition HeLa, percent” value did it give?
Its value is 16% @ 1 μM.
